# Results taken from publication PMC12585908.
# Amino acid sequences for entries named in this document (tags omitted). Residues count along the entry.
# UniProt Q13472, 16-1001: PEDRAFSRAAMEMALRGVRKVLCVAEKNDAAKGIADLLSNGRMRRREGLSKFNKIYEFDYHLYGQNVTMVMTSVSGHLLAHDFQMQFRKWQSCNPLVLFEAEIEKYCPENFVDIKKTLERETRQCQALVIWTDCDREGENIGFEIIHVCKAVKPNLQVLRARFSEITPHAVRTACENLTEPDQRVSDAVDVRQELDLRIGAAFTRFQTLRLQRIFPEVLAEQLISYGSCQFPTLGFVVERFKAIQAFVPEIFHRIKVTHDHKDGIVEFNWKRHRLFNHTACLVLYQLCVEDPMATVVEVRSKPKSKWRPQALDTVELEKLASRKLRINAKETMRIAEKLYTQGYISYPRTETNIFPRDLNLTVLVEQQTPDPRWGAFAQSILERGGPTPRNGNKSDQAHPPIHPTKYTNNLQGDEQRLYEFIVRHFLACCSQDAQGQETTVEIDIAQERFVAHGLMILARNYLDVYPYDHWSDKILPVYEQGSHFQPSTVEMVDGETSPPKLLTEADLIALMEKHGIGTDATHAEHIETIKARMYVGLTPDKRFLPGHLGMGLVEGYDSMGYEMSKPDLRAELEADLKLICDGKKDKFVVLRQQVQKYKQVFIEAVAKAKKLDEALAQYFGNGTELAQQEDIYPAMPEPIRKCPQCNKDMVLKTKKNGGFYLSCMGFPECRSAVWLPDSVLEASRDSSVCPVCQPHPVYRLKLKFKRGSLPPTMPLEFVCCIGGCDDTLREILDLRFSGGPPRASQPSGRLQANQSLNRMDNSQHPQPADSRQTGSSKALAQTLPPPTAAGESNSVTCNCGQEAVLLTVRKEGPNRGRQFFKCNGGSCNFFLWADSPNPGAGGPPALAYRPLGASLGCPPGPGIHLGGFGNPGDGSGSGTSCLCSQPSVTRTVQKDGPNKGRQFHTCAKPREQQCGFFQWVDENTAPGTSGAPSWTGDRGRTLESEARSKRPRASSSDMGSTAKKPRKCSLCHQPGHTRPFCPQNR
# The comparison behind a weaker result is the experiment's own reference, which may not be listed here.
# Biological target: TOP3A 1001 (full-length) (Homo sapiens) (UniProt Q13472)
# Assay: EMSA
# Conditions: no Mg2+ added, lower binding than TOP3A 917; 25 mM HEPES pH 7.5, 70 mM NaCl, 100 ug/ml BSA, 1 mM DTT, 10% glycerol, 10 fmol DNA in 20 ul, 37 C 15 min; 8% PAGE in 0.5x TBE at 4 C; recombinant protein; residues 16-1001; label: 5' 32P; single-stranded DNA
sequence,measurement,value
TGTTATTATTATGTCCTACAAGCATTAATTAATTAACACA [EMSA substrate (40 nt ssDNA)],binding result,binds more weakly
